The results in this text go back to paper doi:10.1101/2025.05.24.655746 (bioRxiv, 2025).

Amino acid sequences for entries named in this document (tags omitted). A change or cut given only in a name is not applied to a line headed by its entry.
UniProt Q06609: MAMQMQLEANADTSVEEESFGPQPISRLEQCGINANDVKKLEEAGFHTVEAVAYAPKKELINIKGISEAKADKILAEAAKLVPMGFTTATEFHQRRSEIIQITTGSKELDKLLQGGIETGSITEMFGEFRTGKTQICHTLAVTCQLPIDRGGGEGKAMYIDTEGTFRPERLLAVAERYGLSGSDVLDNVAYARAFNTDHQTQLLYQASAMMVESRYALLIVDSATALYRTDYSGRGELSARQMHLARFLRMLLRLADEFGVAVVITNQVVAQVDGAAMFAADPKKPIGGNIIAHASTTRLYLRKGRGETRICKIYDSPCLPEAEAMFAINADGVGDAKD

The assay deals with T1, full-length RAD51AP1 (RAD51 Associated Protein 1), wild type (UniProt Q96B01).
T1 sequence: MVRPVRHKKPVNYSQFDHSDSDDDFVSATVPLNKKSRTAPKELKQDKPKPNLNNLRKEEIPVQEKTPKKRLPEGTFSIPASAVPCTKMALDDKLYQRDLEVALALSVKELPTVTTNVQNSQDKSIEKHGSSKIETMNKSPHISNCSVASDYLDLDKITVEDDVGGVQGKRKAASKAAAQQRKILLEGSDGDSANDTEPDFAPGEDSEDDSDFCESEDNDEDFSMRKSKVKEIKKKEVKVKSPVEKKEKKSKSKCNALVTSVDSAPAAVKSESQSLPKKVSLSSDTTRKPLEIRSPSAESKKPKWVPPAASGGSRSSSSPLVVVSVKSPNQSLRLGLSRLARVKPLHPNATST
Put plainly: pull-down.

No constants are given. Whether binding was seen depends on the method and setting.

As for “RAD51-F86E (oligomerisation defective mutant) (from UniProt Q06609 1-339)”, the binding entry was “no binding (tested: 1 µM)”.
